The values that follow come from US5990092.

Series [1] concerns the target GATA-6 (Homo sapiens) (UniProt Q92908). Kind of series: competition with a labelled probe. The note with it: molar excess of unlabeled mutant oligo had no effect on complex; protein in a lysate after overexpression; protein details: pCDNA1/Amp expression in COS1 cells; variant of GATA probe.
Series [2] shares this target. Kind of series: EMSA. As to conditions: protein in a lysate after overexpression; protein details: pCDNA1/Amp expression in COS1 cells; label: 5'-32P.
The test system of series [3] is T1, ΔZF-GATA-6 del244-306 (Homo sapiens).
T1 sequence: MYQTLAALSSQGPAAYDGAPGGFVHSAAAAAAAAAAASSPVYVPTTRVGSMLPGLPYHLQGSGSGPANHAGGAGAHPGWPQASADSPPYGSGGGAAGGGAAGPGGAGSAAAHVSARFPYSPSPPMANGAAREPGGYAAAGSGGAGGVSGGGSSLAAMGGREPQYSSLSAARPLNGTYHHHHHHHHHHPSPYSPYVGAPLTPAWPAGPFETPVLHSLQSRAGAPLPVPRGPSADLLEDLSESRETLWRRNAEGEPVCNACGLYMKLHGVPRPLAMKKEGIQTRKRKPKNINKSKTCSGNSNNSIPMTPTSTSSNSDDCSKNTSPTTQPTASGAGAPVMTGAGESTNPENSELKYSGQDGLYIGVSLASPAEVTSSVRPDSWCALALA
Put plainly: EMSA. The note with it: zinc finger deletion unable to bind; protein in a lysate after overexpression; protein details: pCDNA1/Amp expression in COS1 cells; label: 5'-32P.

Where cells or extracts were used, other partners may take part. For part of these data: A negative result means that nothing was seen under these conditions. For part of these data: Protein sequences can lack the tags named with them.

Regarding “GACCGGGCAACTGCGAAGGATTCCCA (double strand) [GATA mutant]”, the binding result in the series with GATA-6 (Homo sapiens) [1] was “no binding”.

For the sequence “GCCGGGCAACTGATAAGGATTCCCA (double strand) [GATA probe]”, the binding result with GATA-6 (Homo sapiens) [2] is “binds”; in series [3], “no binding”.
